Assay results as given in patent US12535491B2, “Vaccine comprising protein-targeted (PT) extracellular DNA isolated from bacterial matrix” (priority 2018, dated 2026).

Tested on: heat-resistant proteins of human plasma
Experiment: LC/MS of heat-resistant proteins in plasma after exposure to proteinase K and boiling

B1: IGHG2_HUMAN (protein, UniProt P01859 1-395, looked up)
Immunoglobulin heavy constant …: ASTKGPSVFPLAPCSRSTSESTAALGCLVKDYFPEPVTVSWNSGALTSGVHTFPAVLQSSGLYSLSSVVTVPSSNFGTQTYTCNVDHKPSNTKVDKTVERKCCVECPPCPAPPVAGPSVFLFPPKPKDTLMISRTPEVTCVVVDVSHEDPEVQFNWYVDGVEVHNAKTKPREEQFNSTFRVVSVLTVVHQDWLNGKEYKCKVSNKGLPAPIEKTISKTKGQPREPQVYTLPPSREEMTKNQVSLTCLVKGFYPSDISVEWESNGQPENNYKTTPPMLDSDGSFFLYSKLTVDKSRWQQGNVFSCSVMHEALHNHYTQKSLSLSPELQLEESCAEAQDGELDGLWTTITIFITLFLLSVCYSATITFFKVKWIFSSVVDLKQTIVPDYRNMIRQGA
LC/MS, control plasma with added proteinase K, heated at 100° C. for 5 minutes
  N-plasma + pk: 31
Change on adding proteinase K to normal plasma
  Effect (N-plasma + pk vs N-plasma): ↑
